# Measured values from US8354414B2, “Substituted bicyclic pyrimidines” (Cephalon, Inc, priority 2006, dated 2013).
# Amino acid sequences for entries named in this document (tags omitted). Residues count along the entry.
# UniProt P49841, 2-419 limits assumed: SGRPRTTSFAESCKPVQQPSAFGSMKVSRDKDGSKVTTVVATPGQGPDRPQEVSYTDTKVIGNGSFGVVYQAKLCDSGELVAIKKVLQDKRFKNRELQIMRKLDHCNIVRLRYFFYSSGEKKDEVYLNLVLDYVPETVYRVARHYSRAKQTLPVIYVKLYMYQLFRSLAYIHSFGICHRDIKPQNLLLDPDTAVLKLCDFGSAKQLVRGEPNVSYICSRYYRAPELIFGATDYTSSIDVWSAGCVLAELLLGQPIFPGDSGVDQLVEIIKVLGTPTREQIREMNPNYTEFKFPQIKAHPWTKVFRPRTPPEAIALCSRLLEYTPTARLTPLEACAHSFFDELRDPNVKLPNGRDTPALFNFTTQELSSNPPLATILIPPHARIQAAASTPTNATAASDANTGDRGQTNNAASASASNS
# UniProt Q00535, whole entry: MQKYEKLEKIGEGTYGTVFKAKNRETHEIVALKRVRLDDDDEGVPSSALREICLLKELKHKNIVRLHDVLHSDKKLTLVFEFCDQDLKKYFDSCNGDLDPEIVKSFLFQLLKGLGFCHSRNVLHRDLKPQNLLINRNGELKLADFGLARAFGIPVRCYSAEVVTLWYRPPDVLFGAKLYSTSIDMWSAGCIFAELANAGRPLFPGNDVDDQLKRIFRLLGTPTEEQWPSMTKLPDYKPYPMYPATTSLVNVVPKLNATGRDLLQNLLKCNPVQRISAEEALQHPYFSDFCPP
# UniProt Q15078, 108-307 partner limits assumed: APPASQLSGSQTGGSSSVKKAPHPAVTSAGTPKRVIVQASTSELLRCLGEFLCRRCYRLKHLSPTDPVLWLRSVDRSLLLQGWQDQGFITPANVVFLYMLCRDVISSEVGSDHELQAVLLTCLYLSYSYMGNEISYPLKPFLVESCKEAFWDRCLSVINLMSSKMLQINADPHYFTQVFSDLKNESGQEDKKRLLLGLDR
# The structures given here were assigned with low confidence; some may be wrong.
# Experiments:
# [1] = molecular target: His6-GSK-3β (Homo sapiens, UniProt P49841); experiment: Inhibition of His6-GSK-3β kinase activity (ELISA-based format, time-resolved fluorescence readout); assay type: biochemical; details: read-out: GSK3β IC50; class symbols
# Text: Full-length GSK-3β was amplified from a sequence-verified I.M.A.G.E. EST acquired from Research Genetics (Invitrogen, Clone ID# CSODB003YJ02). The final sequence-verified cDNA contained the coding region for a NH2-terminal tag, which encoded for 6 histidines and then eight vector-encoded amino acids prior to the start of GSK3β, which contained by # 43-1342 of Genbank Accession # NM_002093, encoding amino acids #2-419. The predicted molecular weight of the tagged, 435 amino acid, full-length protein is 48.5 kDa. The major structural element of this protein is the kinase domain, which is from amino acids #56-340. Recombinant baculoviral DNA was prepared by transposition in E. coli (BAC-TO-BAC system: Invitrogen) and the virus generated and amplified in Sf21 insect cells. […]
# Inhibitory effects of compounds on baculoviral GSK-3β kinase activity were evaluated using an ELISA-based format in a 384-well FluoroNunc Maxisorp plate (Cat # 460372) with a time-resolved fluorescence readout. […] The plate was gently agitated and after a few minutes, the fluorescence of the resulting solution was measured using a Multilabel Reader (Victor2 Model # 1420-018 or Envision Model 2100). Inhibition data were analyzed using ActivityBase and IC50 curves were generated using XLFit 3.0.5.
# [2] = molecular target: CDK5/GST-p25 (Homo sapiens, UniProt Q00535); experiment: Inhibition of CDK5/GST-p25 kinase activity (ELISA with time-resolved fluorescence readout); details: read-out: CDK5 IC50; class symbols
# Procedure: Two recombinant baculoviral constructs were created, one encoding for human CDK5 and the other encoding for human p25 with an amino-terminal glutathione-S-transferase (GST) tag. PCR amplification of full-length CDK5 was performed utilizing human brain cDNA as a template and Pfu Turbo polymerase (Strategene). The PCR product from this reaction was subcloned into the baculoviral expression vector pFASTBAC1 (Gibco/BRL). The final construct, encoding for full-length human CDK5 (base pairs 25-903 of GenBank Accession #NM_004935), is 292 amino acids long with a predicted MW of 33.3 kDa.
# For p25, the active truncated form of p35, amino acids 108-307 were PCR-amplified from human fetal brain cDNA (Clontech QUICK-Clone cDNA) using the Advantage 2 PCR system (Clontech). […]
# Compounds were tested for their ability to inhibit the kinase activity of recombinant baculoviral CDK5/GST-p25 using an enzyme-linked immunosorbent assay (ELISA) with time-resolved fluorescence (TRF) readout. […] The plate was gently agitated and after a few minutes, the fluorescence of the resulting solution was measured using a Multilabel Reader (Victor2 Model # 1420-018 or Envision Model # 2100). Inhibition data were analyzed using ActivityBase and IC50 curves were generated using XLFit 3.0.5.
smiles,measurement,setting,value
O=C1Nc2ccc(F)cc2C1c1ncnc2nn(C3CCCCC3)cc12 (centres unmarked),IC50,[1],0.3 to 3 µM
same,IC50,[2],0.3 to 3 µM
